The reference is the same well before dosing, and untreated signal decays as well.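 Fibroblast labels denote human fibroblasts, mainly primary ones from uterus (C12385, HUF), lung (H6013), bone (Hs27A), adrenal (HADF) and skin (WS1), plus mammary HMF and breast cancer-associated Hs343T. Cancer cells are basal-like or mesenchymal-like triple-negative breast cancer lines. A hit is a response shift exceeding 3x replicate standard deviation. The tissue of the other fibroblasts is not given here.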
Tested on: Hs578T
Assay: relative JC-1 red fluorescence (viability) vs pre-drug, coculture with fibroblast (fraction); higher = more viable cancer cells
Procedure: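 JC-1 labelled TNBC cells cocultured 1:1 (1,500 cells each) with CellTrace Violet stained primary or stromal fibroblasts in 384-well plates in FluoroBrite medium, treated with one of 42 anticancer drugs at 0.1, 1, 10 or 100 uM. JC-1 red fluorescence (mitochondrial integrity in cancer cells only) was read by plate reader every 8 h for 72 h. Values are normalised to each well's pre-drug value. The stock of one drug was tenfold lower, so its dose labels may be too high.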

CC(C)(C#N)c1cc(Cn2cncn2)cc(C(C)(C)C#N)c1 [Anastrozole]
relative JC-1 red fluorescence
Details | 8 h | 16 h | 24 h | 32 h | 40 h | 48 h | 56 h | 64 h | 72 h
0.1 µM | 0.949 | 0.821 | 0.721 | 0.662 | 0.58 | 0.531 | 0.483 | 0.435 | 0.415
1 µM | 0.8974 | 0.781 | 0.707 | 0.668 | 0.617 | 0.576 | 0.559 | 0.523 | 0.51

relative JC-1 red fluorescence
Details | 8 h | 16 h | 24 h | 32 h | 40 h | 48 h | 56 h | 64 h | 72 h
0.1 µM, coculture fibroblast: C12385 | 0.839 | 0.715 | 0.692 | 0.597 | 0.524 | 0.488 | 0.46 | 0.454 | 0.451
0.1 µM, coculture fibroblast: H6013 | 0.802 | 0.778 | 0.744 | 0.71 | 0.675 | 0.664 | 0.648 | 0.634 | 0.61
0.1 µM, coculture fibroblast: H6019 | 0.779 | 0.698 | 0.671 | 0.583 | 0.544 | 0.522 | 0.494 | 0.48 | 0.458
0.1 µM, coculture fibroblast: H6076 | 0.9172 | 0.831 | 0.76 | 0.722 | 0.676 | 0.654 | 0.626 | 0.615 | 0.611
0.1 µM, coculture fibroblast: H6231 | 0.881 | 0.758 | 0.703 | 0.661 | 0.6 | 0.57 | 0.537 | 0.527 | 0.521
0.1 µM, coculture fibroblast: HADF | 0.8932 | 0.7658 | 0.682 | 0.623 | 0.57 | 0.5342 | 0.506 | 0.491 | 0.463
0.1 µM, coculture fibroblast: HCFa | 0.82825 | 0.7307 | 0.667 | 0.597 | 0.53 | 0.5 | 0.467 | 0.443 | 0.407
0.1 µM, coculture fibroblast: HCPF | 0.896 | 0.793 | 0.755 | 0.734 | 0.674 | 0.651 | 0.6377 | 0.612 | 0.598
0.1 µM, coculture fibroblast: HHSteC | 0.878 | 0.799 | 0.751 | 0.716 | 0.66 | 0.627 | 0.604 | 0.587 | 0.554
0.1 µM, coculture fibroblast: HMF | 0.925 | 0.841 | 0.748 | 0.705 | 0.643 | 0.607 | 0.557 | 0.527 | 0.512
0.1 µM, coculture fibroblast: HPFa | 0.9476 | 0.8618 | 0.809 | 0.752 | 0.712 | 0.676 | 0.635 | 0.614 | 0.568
0.1 µM, coculture fibroblast: HUF | 0.8761 | 0.7211 | 0.71 | 0.601 | 0.551 | 0.515 | 0.488 | 0.482 | 0.481
0.1 µM, coculture fibroblast: Hs27A | 0.9033 | 0.814 | 0.756 | 0.706 | 0.64 | 0.619 | 0.574 | 0.556 | 0.508
0.1 µM, coculture fibroblast: Hs343T | 0.919 | 0.8 | 0.724 | 0.7 | 0.615 | 0.5836 | 0.537 | 0.511 | 0.51
0.1 µM, coculture fibroblast: WS1 | 0.801 | 0.7072 | 0.677 | 0.591 | 0.54 | 0.523 | 0.504 | 0.507 | 0.506
1 µM, coculture fibroblast: C12385 | 0.82 | 0.717 | 0.647 | 0.561 | 0.501 | 0.464 | 0.431 | 0.417 | 0.412
1 µM, coculture fibroblast: H6013 | 0.901 | 0.804 | 0.755 | 0.7 | 0.638 | 0.616 | 0.594 | 0.583 | 0.549
1 µM, coculture fibroblast: H6019 | 0.787 | 0.668 | 0.648 | 0.547 | 0.519 | 0.499 | 0.464 | 0.449 | 0.427
1 µM, coculture fibroblast: H6076 | 0.92 | 0.8254 | 0.7489 | 0.723 | 0.682 | 0.676 | 0.654 | 0.648 | 0.645
1 µM, coculture fibroblast: H6231 | 0.891 | 0.792 | 0.675 | 0.6345 | 0.5607 | 0.5292 | 0.479 | 0.452 | 0.435
1 µM, coculture fibroblast: HADF | 0.914 | 0.856 | 0.785 | 0.733 | 0.69 | 0.662 | 0.632 | 0.623 | 0.594
1 µM, coculture fibroblast: HCFa | 0.885 | 0.797 | 0.722 | 0.654 | 0.57 | 0.538 | 0.495 | 0.47 | 0.425
1 µM, coculture fibroblast: HCPF | 0.8724 | 0.784 | 0.724 | 0.691 | 0.637 | 0.61 | 0.5894 | 0.556 | 0.5413
1 µM, coculture fibroblast: HHSteC | 0.914 | 0.78 | 0.725 | 0.661 | 0.581 | 0.54 | 0.503 | 0.468 | 0.427
1 µM, coculture fibroblast: HMF | 0.871 | 0.775 | 0.7 | 0.673 | 0.615 | 0.5822 | 0.5424 | 0.514 | 0.498
1 µM, coculture fibroblast: HPFa | 0.9369 | 0.894 | 0.752 | 0.682 | 0.626 | 0.583 | 0.546 | 0.519 | 0.471
1 µM, coculture fibroblast: HUF | 0.806 | 0.684 | 0.63 | 0.525 | 0.46 | 0.425 | 0.395 | 0.384 | 0.379
1 µM, coculture fibroblast: Hs27A | 0.8749 | 0.817 | 0.747 | 0.704 | 0.645 | 0.624 | 0.585 | 0.575 | 0.533
1 µM, coculture fibroblast: Hs343T | 0.9 | 0.779 | 0.711 | 0.694 | 0.63276 | 0.6029 | 0.56 | 0.536 | 0.539
1 µM, coculture fibroblast: WS1 | 0.796 | 0.683 | 0.58 | 0.485 | 0.419 | 0.392 | 0.362 | 0.35 | 0.342

Reference: the supplement of paper PMC6078165
